Measured values taken from article PMC7203548.
No constants are given. Whether binding was seen depends on the method and setting. For some assays here: In cells and extracts the contact can be indirect. For some assays here: Tags and fused reporters may be left off the sequences shown.

Columns and labels:
[1] = molecular target: Drosophila melanogaster OTK1-5 ectodomain (residues 23-580), wild type (Drosophila melanogaster) (UniProt Q6AWJ9); assay: SEC-MALS; Superdex 200 Increase 10/300, 15 mM HEPES pH 7.4, 150 mM NaCl; initial protein concentrations 2.0, 1.0 and 0.5 mg/mL; both purified
[2] = molecular target: OTK1-5 K237A ectodomain (Drosophila melanogaster) (UniProt Q6AWJ9); assay: single-particle negative-stain electron microscopy; 8 μg/ml protein in 15 mM HEPES pH 7.4, 150 mM NaCl, stained with 0.75% uranyl formate; both purified
[3] = molecular target: OTK1-5 K237A ectodomain (Drosophila melanogaster) (UniProt Q6AWJ9); assay: AUC; sedimentation velocity, 20°C, 40000 rpm, 15 mM HEPES pH 7.4, 150 mM NaCl; both purified
[4] = molecular target: T1, PlexA_(ecto) (full-length ectodomain of Drosophila Plexin A, all ten domains, residues 28-1272), biotinylated (Drosophila) (UniProt Q9V491); assay: SPR; equilibrium, apparent KD; biotinylated PlexA constructs immobilised on SA chip from dialysed conditioned medium; Biacore T200, PBS, 0.05% Tween 20, 25°C; both purified
T1 sequence (chain, biotin on the biotin ligase recognition site (in vivo biotinylation)): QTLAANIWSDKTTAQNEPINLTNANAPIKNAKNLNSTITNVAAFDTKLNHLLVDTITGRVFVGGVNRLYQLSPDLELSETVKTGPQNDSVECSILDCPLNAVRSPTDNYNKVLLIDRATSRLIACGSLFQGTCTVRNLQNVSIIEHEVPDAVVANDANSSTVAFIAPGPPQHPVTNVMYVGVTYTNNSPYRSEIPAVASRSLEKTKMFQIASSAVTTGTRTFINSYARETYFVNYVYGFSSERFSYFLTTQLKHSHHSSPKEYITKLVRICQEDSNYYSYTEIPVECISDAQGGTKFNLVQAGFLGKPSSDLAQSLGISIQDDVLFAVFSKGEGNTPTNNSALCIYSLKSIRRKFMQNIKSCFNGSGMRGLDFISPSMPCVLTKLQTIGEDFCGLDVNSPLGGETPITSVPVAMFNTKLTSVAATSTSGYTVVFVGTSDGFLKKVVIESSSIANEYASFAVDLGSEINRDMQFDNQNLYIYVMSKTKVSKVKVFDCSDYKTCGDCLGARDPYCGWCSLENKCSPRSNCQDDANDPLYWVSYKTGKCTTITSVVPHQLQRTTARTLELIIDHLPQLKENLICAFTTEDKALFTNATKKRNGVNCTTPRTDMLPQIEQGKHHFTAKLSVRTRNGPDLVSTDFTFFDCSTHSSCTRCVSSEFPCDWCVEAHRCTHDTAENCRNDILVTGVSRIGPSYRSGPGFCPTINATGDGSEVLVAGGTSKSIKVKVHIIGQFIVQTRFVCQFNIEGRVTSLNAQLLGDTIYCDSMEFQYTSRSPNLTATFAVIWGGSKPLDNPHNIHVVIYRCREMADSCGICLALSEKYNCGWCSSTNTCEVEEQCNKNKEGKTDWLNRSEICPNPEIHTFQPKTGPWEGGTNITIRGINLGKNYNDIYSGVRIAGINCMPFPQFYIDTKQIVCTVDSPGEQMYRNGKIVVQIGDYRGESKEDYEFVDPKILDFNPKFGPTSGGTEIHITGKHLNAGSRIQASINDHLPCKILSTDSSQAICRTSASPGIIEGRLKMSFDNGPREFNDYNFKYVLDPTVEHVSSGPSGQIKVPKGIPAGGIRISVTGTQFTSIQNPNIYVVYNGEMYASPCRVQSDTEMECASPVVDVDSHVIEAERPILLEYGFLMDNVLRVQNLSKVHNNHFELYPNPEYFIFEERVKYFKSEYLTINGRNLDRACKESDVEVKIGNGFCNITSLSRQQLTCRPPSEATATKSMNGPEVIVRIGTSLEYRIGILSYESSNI

[5] = molecular target: T2, PlexA1-4 (first four domains of Drosophila Plexin A, residues 28-730), biotinylated (Drosophila) (UniProt Q9V491); assay: as above
T2 sequence (chain, biotin on the biotin ligase recognition site (in vivo biotinylation)): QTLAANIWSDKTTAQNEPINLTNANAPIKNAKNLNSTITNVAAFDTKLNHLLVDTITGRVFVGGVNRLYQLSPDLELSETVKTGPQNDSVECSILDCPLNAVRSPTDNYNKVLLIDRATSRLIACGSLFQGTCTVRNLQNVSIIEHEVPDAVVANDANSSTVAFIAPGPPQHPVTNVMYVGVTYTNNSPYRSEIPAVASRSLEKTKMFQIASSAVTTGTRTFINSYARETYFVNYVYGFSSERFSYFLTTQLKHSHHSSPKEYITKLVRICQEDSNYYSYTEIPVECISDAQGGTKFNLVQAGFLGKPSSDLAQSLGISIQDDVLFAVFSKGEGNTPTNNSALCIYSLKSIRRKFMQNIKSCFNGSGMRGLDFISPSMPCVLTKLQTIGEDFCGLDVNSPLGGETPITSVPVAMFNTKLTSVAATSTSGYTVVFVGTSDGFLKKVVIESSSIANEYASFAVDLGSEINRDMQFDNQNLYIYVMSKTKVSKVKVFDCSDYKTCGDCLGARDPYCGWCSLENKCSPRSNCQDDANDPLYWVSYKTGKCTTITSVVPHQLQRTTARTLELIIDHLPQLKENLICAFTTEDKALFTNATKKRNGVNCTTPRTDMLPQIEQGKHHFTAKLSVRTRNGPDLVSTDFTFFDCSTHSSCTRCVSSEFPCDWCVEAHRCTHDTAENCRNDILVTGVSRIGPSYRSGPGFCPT

[6] = molecular target: OTK (residues 23-607: ectodomain, transmembrane segment, short cytoplasmic linker) with C-terminal mClover or mRuby2, in COS-7 cells (Drosophila) (UniProt Q6AWJ9); assay: FRET or BRET; FRET-FLIM in live COS-7 cells, donor mClover and acceptor mRuby2 fusions co-expressed, 37°C, donor lifetime measured
[7] = molecular target: mClover-tagged OTK wild-type (residues 23-607), solubilised from HEK293T cells (Drosophila) (UniProt Q6AWJ9); assay: SEC; fluorescence-detection SEC (FSEC) of HEK293T cells solubilised with 1.0% DDM/CHS, Superose 6 Increase 3.2/300, 15 mM HEPES pH 7.4, 150 mM NaCl, 0.03% DDM/CHS; compared with OTK-CD4
[8] = molecular target: mClover-tagged OTK wild-type (residues 23-607), solubilised from HEK293T cells (Drosophila) (UniProt Q6AWJ9); assay: native gel or EMSA; blue native PAGE followed by western blot; OTK wild-type compared with OTK-CD4

B1: Drosophila melanogaster OTK1-5 ectodomain (residues 23-580), wild type (domain or fragment, UniProt Q6AWJ9 23-580)
chain: SSSRFQRVPQSQSVVENESVKFECESTDSYSELHYDWLHNGHRIAYDKRVHQIGSNLHIEAVRRTEDVGNYVCIATNLASGAREASPPAKLSVIYLESASVQLLGSNRNELLLKCHVEGASGDLEPLEIEWYRNSEKLSTWKNVQLDQHRLIIRQPGSEDDGLYRCTASNAAGRVMSKQGYVYQSSVKCLPRLPRRKNEKMMESWDKQTFLCRGKRGGAAGLEALPAAPEDLRIVQGPIGQSIIKEGEPTALTCLYELPDELKNQRIQLRWRKDGKLLRQVELGGSAPIPGHSFDSGKDALLREDARLVLHKQNGTLSFASIIASDAGQYQCQLQLEAHAPINSSPGILEVIEQLKFVPQPTSKNLELDAVVAKVHCKAQGTPTPQVQWVRDGENTTLPDHVEVDANGTLIFRNVNSEHRGNYTCLATNSQGQINATVAINVVVTPKFSVPPVGPIETSEQGTVVMHCQAIGDPKPTIQWDKDLKYLSENNTDRERFRFLENGTLEIRNVQVEDEGSYGCTIGNSAGLKREDVQLVVKTTGDGFAPEESGGDGFLVTR
binding [1]: no binding (tested: 2.0 mg/mL)

B2: OTK1-5 K237A ectodomain (domain or fragment, UniProt Q6AWJ9 23-580)
chain: SSSRFQRVPQSQSVVENESVKFECESTDSYSELHYDWLHNGHRIAYDKRVHQIGSNLHIEAVRRTEDVGNYVCIATNLASGAREASPPAKLSVIYLESASVQLLGSNRNELLLKCHVEGASGDLEPLEIEWYRNSEKLSTWKNVQLDQHRLIIRQPGSEDDGLYRCTASNAAGRVMSKQGYVYQSSVKCLPRLPRRKNEKMMESWDKQTFLCRGARGGAAGLEALPAAPEDLRIVQGPIGQSIIKEGEPTALTCLYELPDELKNQRIQLRWRKDGKLLRQVELGGSAPIPGHSFDSGKDALLREDARLVLHKQNGTLSFASIIASDAGQYQCQLQLEAHAPINSSPGILEVIEQLKFVPQPTSKNLELDAVVAKVHCKAQGTPTPQVQWVRDGENTTLPDHVEVDANGTLIFRNVNSEHRGNYTCLATNSQGQINATVAINVVVTPKFSVPPVGPIETSEQGTVVMHCQAIGDPKPTIQWDKDLKYLSENNTDRERFRFLENGTLEIRNVQVEDEGSYGCTIGNSAGLKREDVQLVVKTTGDGFAPEESGGDGFLVTR
binding [2]: no binding (tested: 8 μg/ml) | binding [3]: no binding (tested: up to a concentration of 80 μM) | binding [4]: no binding (tested: up to 125 μM) | binding [5]: no binding (tested: up to 125 μM)

B3: OTK (residues 23-607: ectodomain, transmembrane segment, short cytoplasmic linker) with C-terminal mClover or mRuby2, in COS-7 cells (receptor, UniProt Q6AWJ9 23-607)
chain: SSSRFQRVPQSQSVVENESVKFECESTDSYSELHYDWLHNGHRIAYDKRVHQIGSNLHIEAVRRTEDVGNYVCIATNLASGAREASPPAKLSVIYLESASVQLLGSNRNELLLKCHVEGASGDLEPLEIEWYRNSEKLSTWKNVQLDQHRLIIRQPGSEDDGLYRCTASNAAGRVMSKQGYVYQSSVKCLPRLPRRKNEKMMESWDKQTFLCRGKRGGAAGLEALPAAPEDLRIVQGPIGQSIIKEGEPTALTCLYELPDELKNQRIQLRWRKDGKLLRQVELGGSAPIPGHSFDSGKDALLREDARLVLHKQNGTLSFASIIASDAGQYQCQLQLEAHAPINSSPGILEVIEQLKFVPQPTSKNLELDAVVAKVHCKAQGTPTPQVQWVRDGENTTLPDHVEVDANGTLIFRNVNSEHRGNYTCLATNSQGQINATVAINVVVTPKFSVPPVGPIETSEQGTVVMHCQAIGDPKPTIQWDKDLKYLSENNTDRERFRFLENGTLEIRNVQVEDEGSYGCTIGNSAGLKREDVQLVVKTTGDGFAPEESGGDGFLVTRAVLITMTVALAYIVLVVGLMLWCRYRR
binding [6]: no binding

B4: mClover-tagged OTK wild-type (residues 23-607), solubilised from HEK293T cells (receptor, UniProt Q6AWJ9 23-607)
chain: SSSRFQRVPQSQSVVENESVKFECESTDSYSELHYDWLHNGHRIAYDKRVHQIGSNLHIEAVRRTEDVGNYVCIATNLASGAREASPPAKLSVIYLESASVQLLGSNRNELLLKCHVEGASGDLEPLEIEWYRNSEKLSTWKNVQLDQHRLIIRQPGSEDDGLYRCTASNAAGRVMSKQGYVYQSSVKCLPRLPRRKNEKMMESWDKQTFLCRGKRGGAAGLEALPAAPEDLRIVQGPIGQSIIKEGEPTALTCLYELPDELKNQRIQLRWRKDGKLLRQVELGGSAPIPGHSFDSGKDALLREDARLVLHKQNGTLSFASIIASDAGQYQCQLQLEAHAPINSSPGILEVIEQLKFVPQPTSKNLELDAVVAKVHCKAQGTPTPQVQWVRDGENTTLPDHVEVDANGTLIFRNVNSEHRGNYTCLATNSQGQINATVAINVVVTPKFSVPPVGPIETSEQGTVVMHCQAIGDPKPTIQWDKDLKYLSENNTDRERFRFLENGTLEIRNVQVEDEGSYGCTIGNSAGLKREDVQLVVKTTGDGFAPEESGGDGFLVTRAVLITMTVALAYIVLVVGLMLWCRYRR
binding [7]: no binding | binding [8]: no binding
